This note sets out measurements from the supplement of paper PMC12819154, “High-throughput peptide-centric local stability assay extends protein–ligand identification to membrane proteins, tissues and bacteria” (Nature Structural & Molecular Biology, 2025).

Amino acid sequences for entries named in this document (tags omitted). A change or cut given only in a name is not applied to a line headed by its entry.
UniProt Q8K3I9: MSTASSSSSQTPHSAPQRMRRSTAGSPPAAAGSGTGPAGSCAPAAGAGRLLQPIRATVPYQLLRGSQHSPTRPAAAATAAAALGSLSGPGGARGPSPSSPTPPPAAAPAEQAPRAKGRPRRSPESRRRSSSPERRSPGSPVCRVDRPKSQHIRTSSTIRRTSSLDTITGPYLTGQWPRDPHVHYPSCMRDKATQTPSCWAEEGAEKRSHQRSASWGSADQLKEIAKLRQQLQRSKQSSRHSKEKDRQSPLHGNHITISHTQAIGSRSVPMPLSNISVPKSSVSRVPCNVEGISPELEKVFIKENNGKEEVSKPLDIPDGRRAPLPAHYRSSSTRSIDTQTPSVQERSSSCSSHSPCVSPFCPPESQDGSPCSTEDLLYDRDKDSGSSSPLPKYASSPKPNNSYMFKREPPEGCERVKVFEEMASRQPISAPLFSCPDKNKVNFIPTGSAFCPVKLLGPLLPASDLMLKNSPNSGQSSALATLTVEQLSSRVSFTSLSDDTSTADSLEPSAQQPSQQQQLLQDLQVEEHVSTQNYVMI
UniProt Q8K370: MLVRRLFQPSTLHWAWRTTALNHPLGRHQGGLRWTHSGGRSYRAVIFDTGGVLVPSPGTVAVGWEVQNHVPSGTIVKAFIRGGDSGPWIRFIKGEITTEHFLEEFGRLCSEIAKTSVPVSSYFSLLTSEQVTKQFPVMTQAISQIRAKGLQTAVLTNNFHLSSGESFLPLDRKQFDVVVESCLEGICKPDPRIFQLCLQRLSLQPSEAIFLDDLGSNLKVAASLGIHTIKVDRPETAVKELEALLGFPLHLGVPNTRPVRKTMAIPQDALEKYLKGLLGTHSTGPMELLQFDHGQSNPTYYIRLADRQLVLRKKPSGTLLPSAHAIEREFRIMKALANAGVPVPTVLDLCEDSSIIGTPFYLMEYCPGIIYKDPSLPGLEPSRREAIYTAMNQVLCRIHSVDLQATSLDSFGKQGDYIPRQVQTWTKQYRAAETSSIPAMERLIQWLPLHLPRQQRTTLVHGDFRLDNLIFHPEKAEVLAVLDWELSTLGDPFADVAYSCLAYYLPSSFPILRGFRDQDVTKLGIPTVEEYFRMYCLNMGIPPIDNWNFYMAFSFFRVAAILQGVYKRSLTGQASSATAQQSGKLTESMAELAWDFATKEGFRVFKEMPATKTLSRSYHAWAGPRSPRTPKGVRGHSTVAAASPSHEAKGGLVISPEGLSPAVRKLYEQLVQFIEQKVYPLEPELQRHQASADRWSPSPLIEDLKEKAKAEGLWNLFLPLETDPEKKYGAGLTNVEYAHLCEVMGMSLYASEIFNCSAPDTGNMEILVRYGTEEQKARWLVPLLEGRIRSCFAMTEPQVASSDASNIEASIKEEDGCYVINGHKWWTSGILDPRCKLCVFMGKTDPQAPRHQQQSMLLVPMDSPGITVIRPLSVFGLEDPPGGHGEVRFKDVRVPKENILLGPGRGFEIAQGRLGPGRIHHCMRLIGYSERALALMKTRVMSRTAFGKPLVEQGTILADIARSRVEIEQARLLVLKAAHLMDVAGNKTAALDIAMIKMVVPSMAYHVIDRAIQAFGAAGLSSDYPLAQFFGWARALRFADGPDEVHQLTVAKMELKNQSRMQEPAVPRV
UniProt Q8K224: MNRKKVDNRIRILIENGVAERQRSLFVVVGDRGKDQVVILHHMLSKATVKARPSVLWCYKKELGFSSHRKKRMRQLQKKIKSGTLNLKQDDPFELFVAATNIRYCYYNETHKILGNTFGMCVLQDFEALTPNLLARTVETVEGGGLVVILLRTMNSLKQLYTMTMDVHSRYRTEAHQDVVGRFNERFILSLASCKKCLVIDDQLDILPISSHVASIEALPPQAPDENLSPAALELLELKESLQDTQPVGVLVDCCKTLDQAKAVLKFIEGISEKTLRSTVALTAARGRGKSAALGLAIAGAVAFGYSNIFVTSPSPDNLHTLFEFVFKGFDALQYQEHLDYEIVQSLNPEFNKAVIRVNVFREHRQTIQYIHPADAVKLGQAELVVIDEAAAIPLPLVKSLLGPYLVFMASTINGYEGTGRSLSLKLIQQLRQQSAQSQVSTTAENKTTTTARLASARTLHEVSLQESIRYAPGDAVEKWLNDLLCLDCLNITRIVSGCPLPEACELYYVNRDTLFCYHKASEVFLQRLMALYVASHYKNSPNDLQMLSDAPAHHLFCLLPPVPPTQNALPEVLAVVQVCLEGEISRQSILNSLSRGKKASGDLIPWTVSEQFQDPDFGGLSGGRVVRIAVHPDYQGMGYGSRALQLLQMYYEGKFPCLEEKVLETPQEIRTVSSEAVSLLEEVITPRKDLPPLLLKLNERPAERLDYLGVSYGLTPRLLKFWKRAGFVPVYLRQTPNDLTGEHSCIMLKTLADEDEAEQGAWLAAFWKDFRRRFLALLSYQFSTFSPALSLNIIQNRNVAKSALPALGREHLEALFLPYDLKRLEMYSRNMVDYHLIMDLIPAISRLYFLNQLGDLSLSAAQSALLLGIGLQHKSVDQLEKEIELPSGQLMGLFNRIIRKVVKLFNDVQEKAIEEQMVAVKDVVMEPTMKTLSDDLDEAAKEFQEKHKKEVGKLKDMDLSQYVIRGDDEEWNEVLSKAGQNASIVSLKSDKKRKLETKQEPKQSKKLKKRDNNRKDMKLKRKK
UniProt Q8R0J7: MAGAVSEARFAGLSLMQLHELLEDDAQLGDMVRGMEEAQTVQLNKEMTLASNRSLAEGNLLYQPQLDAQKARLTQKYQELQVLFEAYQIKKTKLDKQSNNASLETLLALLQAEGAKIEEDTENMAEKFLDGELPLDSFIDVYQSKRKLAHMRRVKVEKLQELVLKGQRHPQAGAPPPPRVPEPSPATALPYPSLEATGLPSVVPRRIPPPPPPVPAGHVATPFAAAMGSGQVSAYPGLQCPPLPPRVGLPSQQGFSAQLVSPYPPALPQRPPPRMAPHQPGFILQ
UniProt Q8R1A4: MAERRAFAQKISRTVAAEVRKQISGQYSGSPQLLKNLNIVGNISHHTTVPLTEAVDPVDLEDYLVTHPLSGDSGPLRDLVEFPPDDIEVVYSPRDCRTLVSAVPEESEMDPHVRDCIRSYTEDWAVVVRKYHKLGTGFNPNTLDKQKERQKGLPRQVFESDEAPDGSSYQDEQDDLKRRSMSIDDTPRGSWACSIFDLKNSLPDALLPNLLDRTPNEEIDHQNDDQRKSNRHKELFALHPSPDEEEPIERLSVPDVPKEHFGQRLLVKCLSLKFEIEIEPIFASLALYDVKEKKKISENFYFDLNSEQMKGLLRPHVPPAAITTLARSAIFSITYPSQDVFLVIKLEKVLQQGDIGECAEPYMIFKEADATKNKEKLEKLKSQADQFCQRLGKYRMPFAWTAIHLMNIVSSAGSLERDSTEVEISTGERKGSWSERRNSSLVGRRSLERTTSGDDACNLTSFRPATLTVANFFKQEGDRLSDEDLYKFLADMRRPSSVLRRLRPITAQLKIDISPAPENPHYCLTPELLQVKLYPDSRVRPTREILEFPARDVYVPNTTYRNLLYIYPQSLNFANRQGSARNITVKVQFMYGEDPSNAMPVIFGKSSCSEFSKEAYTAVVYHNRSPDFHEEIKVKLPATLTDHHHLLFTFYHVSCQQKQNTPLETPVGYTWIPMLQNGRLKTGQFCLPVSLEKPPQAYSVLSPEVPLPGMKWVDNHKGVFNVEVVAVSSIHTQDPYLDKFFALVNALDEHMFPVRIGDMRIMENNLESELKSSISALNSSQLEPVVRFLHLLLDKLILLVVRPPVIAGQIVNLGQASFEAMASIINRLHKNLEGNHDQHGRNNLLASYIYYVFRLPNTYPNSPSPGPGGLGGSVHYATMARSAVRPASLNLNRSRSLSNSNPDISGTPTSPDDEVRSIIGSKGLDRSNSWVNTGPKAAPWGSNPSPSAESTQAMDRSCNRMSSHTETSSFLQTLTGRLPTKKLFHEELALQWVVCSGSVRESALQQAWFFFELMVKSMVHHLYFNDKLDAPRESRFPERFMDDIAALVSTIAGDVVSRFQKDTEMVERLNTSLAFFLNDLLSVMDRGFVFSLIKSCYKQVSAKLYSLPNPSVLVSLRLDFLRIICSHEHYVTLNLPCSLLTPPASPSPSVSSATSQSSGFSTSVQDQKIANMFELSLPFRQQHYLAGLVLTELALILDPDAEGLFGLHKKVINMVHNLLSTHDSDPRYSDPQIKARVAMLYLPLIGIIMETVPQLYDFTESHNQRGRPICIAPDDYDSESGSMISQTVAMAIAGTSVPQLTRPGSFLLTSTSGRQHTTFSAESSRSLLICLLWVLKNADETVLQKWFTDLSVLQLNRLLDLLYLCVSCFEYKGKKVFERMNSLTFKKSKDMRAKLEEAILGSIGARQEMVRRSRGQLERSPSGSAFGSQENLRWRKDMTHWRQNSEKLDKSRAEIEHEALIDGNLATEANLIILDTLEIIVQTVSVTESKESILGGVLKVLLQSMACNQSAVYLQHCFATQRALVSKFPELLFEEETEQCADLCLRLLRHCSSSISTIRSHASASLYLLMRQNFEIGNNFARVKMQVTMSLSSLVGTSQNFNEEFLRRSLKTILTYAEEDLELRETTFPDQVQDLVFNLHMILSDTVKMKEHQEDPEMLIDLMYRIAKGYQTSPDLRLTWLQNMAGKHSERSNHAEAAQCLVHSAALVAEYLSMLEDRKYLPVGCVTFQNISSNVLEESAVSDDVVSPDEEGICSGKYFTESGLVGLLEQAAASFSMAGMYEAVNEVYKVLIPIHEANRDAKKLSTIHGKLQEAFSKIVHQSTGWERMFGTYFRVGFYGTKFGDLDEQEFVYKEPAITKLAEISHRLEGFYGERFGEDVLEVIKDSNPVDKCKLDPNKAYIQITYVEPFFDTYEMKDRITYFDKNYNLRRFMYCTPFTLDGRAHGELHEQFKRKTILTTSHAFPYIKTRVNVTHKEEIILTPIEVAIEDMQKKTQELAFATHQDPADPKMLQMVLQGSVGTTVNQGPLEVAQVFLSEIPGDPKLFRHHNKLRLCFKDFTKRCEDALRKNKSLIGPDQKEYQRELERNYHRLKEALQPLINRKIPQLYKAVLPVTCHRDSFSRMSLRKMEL
UniProt Q8R0A7: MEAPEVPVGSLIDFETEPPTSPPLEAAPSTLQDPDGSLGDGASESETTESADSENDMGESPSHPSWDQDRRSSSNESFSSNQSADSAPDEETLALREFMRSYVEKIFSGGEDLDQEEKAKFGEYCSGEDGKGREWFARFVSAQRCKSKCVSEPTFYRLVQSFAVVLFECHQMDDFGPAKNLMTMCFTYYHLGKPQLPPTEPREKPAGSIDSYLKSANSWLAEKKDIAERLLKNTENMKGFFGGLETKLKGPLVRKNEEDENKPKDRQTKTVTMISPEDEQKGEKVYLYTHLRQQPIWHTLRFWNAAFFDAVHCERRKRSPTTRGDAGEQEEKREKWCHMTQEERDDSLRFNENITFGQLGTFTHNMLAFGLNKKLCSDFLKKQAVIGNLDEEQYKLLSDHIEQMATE
UniProt Q8R016: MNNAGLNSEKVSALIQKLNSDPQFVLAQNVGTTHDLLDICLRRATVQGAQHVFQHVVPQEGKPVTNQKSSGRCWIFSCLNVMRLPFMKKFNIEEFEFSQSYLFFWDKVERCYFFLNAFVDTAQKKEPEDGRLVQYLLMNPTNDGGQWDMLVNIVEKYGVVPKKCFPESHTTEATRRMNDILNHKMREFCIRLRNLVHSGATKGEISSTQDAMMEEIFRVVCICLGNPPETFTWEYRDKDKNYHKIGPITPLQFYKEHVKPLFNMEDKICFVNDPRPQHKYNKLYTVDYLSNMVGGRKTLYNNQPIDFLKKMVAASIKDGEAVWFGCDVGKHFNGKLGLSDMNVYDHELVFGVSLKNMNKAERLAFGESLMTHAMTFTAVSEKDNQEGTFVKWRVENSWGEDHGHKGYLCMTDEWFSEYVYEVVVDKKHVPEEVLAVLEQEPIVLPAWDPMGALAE
UniProt Q8K182, whole entry: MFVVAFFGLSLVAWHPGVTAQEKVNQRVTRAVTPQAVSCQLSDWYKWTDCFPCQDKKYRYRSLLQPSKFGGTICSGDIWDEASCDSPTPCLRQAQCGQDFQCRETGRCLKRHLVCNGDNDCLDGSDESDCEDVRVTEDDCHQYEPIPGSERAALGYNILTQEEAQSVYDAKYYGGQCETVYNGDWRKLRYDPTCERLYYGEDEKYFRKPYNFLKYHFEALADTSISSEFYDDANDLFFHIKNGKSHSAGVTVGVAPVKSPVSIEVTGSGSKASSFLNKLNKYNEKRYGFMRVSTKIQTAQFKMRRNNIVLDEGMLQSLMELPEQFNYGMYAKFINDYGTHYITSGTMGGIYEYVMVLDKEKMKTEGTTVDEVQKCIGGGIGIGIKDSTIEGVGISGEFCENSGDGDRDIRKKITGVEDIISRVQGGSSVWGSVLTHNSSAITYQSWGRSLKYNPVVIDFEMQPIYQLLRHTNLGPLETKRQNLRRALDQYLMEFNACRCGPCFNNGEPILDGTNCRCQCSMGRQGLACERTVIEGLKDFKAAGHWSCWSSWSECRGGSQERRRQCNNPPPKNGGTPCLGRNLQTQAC

This is one part of the list. Most values lie at the level of the controls, where differences are scatter.

Compound in this test: CN[C@@H]1C[C@H]2O[C@@](C)([C@@H]1OC)n1c3ccccc3c3c4c(c5c6ccccc6n2c5c31)C(=O)NC4 [staurosporine]
The test is described as follows: log2 fold change of tryptic peptide abundance, ligand vs vehicle (limited proteolysis) (log2 ratio); higher = more trypsin-susceptible (destabilized). The following applies: ligand concentration: 20 uM; sample: mouse liver crude lysate; replicate design: treated separately.
Regarding “UniProt Q8R0W0 (peptide sequence: AEHSITGYR, peptide start residue: 1012)”, the log2 fold change was 0.742.

Consider “UniProt Q8K3I9 (peptide sequence: QPISAPLFSCPDKNK, peptide start residue: 426)”, for which the log2 fold change was found to be 0.173.

Turning to “UniProt Q8K370 (peptide sequence: TMAIPQDALEK, peptide start residue: 262)”, the log2 fold change is -0.331.

For the target “UniProt Q8K224 (peptide sequence: TEAHQDVVGR, peptide start residue: 173)”, the log2 fold change is -0.35.

For the target “UniProt Q8R0J7 (peptide sequence: HPQAGAPPPPR, peptide start residue: 169)”, the log2 fold change stood at 0.174.

In the case of “UniProt Q8R1A4 (peptide sequence: MNSLTFKK, peptide start residue: 1380)”, the log2 fold change was -0.551.

On to “UniProt Q8K3A9 (peptide sequence: RGGGGTDLGPPAPPRPR, peptide start residue: 91)”, for which the log2 fold change is -0.182.

Consider “UniProt Q8R0A7 (peptide sequence: LCSDFLK, peptide start residue: 375)”, for which the log2 fold change amounted to 0.313.

On to “UniProt Q8R016 (peptide sequence: KTLYNNQPIDFLKK, peptide start residue: 297)”, for which the log2 fold change was 0.305.

With “UniProt Q8K442 (peptide sequence: KGEVVGLLGHNGAGK, peptide start residue: 1314)”, the log2 fold change amounted to 0.0508.

For “UniProt Q8K182 (peptide sequence: VTEDDCHQYEPIPGSER, peptide start residue: 135)”, the log2 fold change is -0.445.
